Laboratory results from US10687532B2, “Substituted oxadiazoles for combating phytopathogenic fungi” (BASF SE, priority 2015, dated 2020).
Some results were stated once for a whole list of compounds, not compound by compound.

Tests used:
Type in all cases: in vivo
Phakopsora pachyrhizi [1] = test: Curative control of soy bean rust on soy beans (glass house trial); details: 32 ppm, sprayed after inoculation (curative), soy bean seedlings, assessed after 14 days; untreated plants 100%
Puccinia recondite [2] = test: Preventative control of brown rust on wheat (glass house trial); details: 63 ppm, sprayed seven days before inoculation (preventative), wheat seedlings, assessed after 6 days; untreated plants 90%
Puccinia recondite [3] = test: Curative control of brown rust on wheat (glass house trial); details: 63 ppm, sprayed after inoculation (curative), wheat seedlings, assessed after 8 days; untreated plants 90%
Phakopsora pachyrhizi [4] = test: Protective control of soy bean rust on soy beans (glass house trial); details: 32 ppm, sprayed 2 days before inoculation (protective), soy bean seedlings, assessed after fourteen days; untreated plants 100%

Row | SMILES | diseased leaf area (Phakopsora pachyrhizi [1]) | diseased leaf area (Puccinia recondite [2]) | diseased leaf area (Puccinia recondite [3]) | diseased leaf area (Phakopsora pachyrhizi [4])
1 | O=C(Nc1ccc(-c2noc(C(F)(F)F)n2)cn1)C1CC1 [Ex-1] | at most 15% | at most 2% | at most 13% | at most 3%
2 | O=C(Nc1ccc(-c2noc(C(F)(F)F)n2)cc1)C1CCC1 [Ex-2, N-[4-[5-(trifluoromethyl)-1,2,4-oxadiazol-3-yl]phenyl]cyclobutanecarboxamide] | at most 15% | – | – | at most 3%
3 | CN(C(=O)C1CC1)c1ccc(-c2noc(C(F)(F)F)n2)cc1 [Ex-7, N-methyl-N-[4-[5-(trifluoromethyl)-1,2,4-oxadiazol-3-yl]phenyl]cyclopropanecarboxamide] | – | – | – | at most 3%
